In this assay the target is GST-PDE6δ (UniProt O43924). In words: pull-down; release step of the GST pull-down: 20 μM Arl2 or Arl3 (GppNHp) added to GST-PDE6δ beads loaded from IMCD3 lysate, 1 h at 4 °C; read by loss of GFP-INPP5E; both purified.

Sequences of proteins named here, by UniProt entry; tags and fusion partners are left off.
UniProt Q9WUL7: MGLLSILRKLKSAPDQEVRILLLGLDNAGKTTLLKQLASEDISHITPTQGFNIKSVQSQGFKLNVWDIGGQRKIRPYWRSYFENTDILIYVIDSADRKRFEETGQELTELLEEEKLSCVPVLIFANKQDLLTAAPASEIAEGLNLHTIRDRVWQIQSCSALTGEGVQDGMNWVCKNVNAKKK
UniProt Q9D0J4: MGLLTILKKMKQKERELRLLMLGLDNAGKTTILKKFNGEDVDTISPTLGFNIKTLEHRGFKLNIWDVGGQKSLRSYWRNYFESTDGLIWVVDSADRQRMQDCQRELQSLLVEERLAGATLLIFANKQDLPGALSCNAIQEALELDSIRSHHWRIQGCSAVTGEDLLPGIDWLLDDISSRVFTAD

No constants are given. Whether binding was seen depends on the method and setting. Some binding calls cover weakened binding; strength is not graded here.

For the substance “full-length Arl3, C-terminal histidine-tagged, bound to GppNHp or mantGppNHp (from UniProt Q9WUL7 1-182)”, the binding result is “binds”.

Turning to “full-length Arl2, C-terminal histidine-tagged, bound to GppNHp or mantGppNHp (from UniProt Q9D0J4 1-184)”, the binding entry was “binds”.

These data come from article PMC5512577, “PDE6δ-mediated sorting of INPP5E into the cilium is determined by cargo-carrier affinity” (Nature Communications, 2016).
